Test results reported in patent publication US6436905B1, “Lipid-containing compositions and uses thereof” (Aston University, priority 1997, dated 2002).
The name of at least one read-out is uncertain.

Assay: Solubilization of CB 1954 into a DLPC/PMAS micelle
Type: physicochemical
Details: 1% DLPC, 0.05% CB1954, 1% PMAS in water; solution clears at pH 5.8, adjusted to pH 7.0

Structure (SMILES): NC(=O)c1cc(N2CC2)c([N+](=O)[O-])cc1[N+](=O)[O-] [CB 1954, 5-(azinidin-1-yl)-2,4-dinitrobenzamide]
- solubilization into a DLPC/PMAS complex: successful solubilization
